Some of these results come from one statement about several compounds together. For at least one compound, name, drawing or mass did not settle the structure.
System: purified Taenia solium cysteine protease
Assay: Competitor assay: vehicle inhibition of cleavage of high Vmax AFC substrate cocktails (Step III)
Type: biochemical
Settings: vehicle 8×10^−6 M; for inhibition with the 1.4% cocktail (potency of inhibition): 1.4% cocktail (Z-FR-AFC)
Procedure: (We employed “Vmax” here although Kcat could also be used). Due to the lower number of substrates, a percentage was not chosen for the “BOTTOM %” substrates. Alternately, all substrates which were not cleaved as determined by a value of 10 μM/hr or less, were chosen to be tested in this step for competitive ability. From this point forth, the term “vehicle” will represent low Vmax substrates that were capable of inhibiting cleavage of the percent cocktails. In this instance, we tested for “vehicles” which inhibited cleavage of the TOP 1.4% cocktail (they were delivered into the active site). Based upon our results from Step II, the top 1.4% cocktail was composed of Z-Phe-Arg-AFC, the highest cleaved substrate.
The experiment began with a competitor test between the noncleaved low Vmax substrates and the highest Vmax substrate, Z-Phe-Arg-AFC. Concentrations were varied between the low Vmax substrate and Z-Phe-Arg-AFC, as described above under “refinement of assay” until a relative inhibition profile was obtained.
The mixture was allowed to equilibrate for a period of 30 minutes. Finally, active purified enzyme was added to the tubes at a concentration which was always 50 times less than the concentration of the high and low Vmax substrates, in order to insure saturation conditions. This concentration varied from purification to purification and the amount added depended upon the yield and specific activity of the purified protease.
Positive controls were set up similarly as described for test controls, except that solvent was added in substitution for the low Vmax substrate (in a volume equal to the low Vmax volume addition). All of the substrates could be dissolved in dimethylsulfoxide (DMSO), and therefore, this was the solvent of choice. Negative controls were set up by adding the low Vmax and the high Vmax substrate in a tube without the protease. […]
Percent inhibition was calculated as: [formula] […]

Compound	inhibition with the 1.4% cocktail (potency of inhibition)	inhibition with the final cocktail (maintenance of inhibition) (7.4% cocktail, each cocktail substrate 1×10^−6 M)
CC(C)C[C@H](NC(=O)[C@H](Cc1ccccc1)NC(=O)OCc1ccccc1)C(=O)N[C@@H](Cc1ccccc1)C(=O)Nc1ccc2c(C(F)(F)F)cc(=O)oc2c1 [Z-FLF-AFC]	greater than 20%	less than 20%
CC(C)C[C@H](NC(=O)OCc1ccccc1)C(=O)NCC(=O)N[C@@H](CCCNC(=N)N)C(=O)Nc1ccc2c(C(F)(F)F)cc(=O)oc2c1 [Z-LGR-AFC, Z-Leu-Gly-Arg-AFC]	greater than 20%	–
